Assay results

Data taken from PubChem BioAssay AID1159506, deposited by NCATS (2015).

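Genome-wide siRNA knockdown in TC32 Ewing sarcoma cells, comparing luciferase light from an NR0B1-promoter reporter with a CMV-promoter reporter 48 hours after transfection.
Each siRNA was applied at 20 nM.
A z-score of the log NR0B1-over-CMV signal, less the median of siRNAs with the same seed; more negative means a stronger specific loss of the NR0B1 reporter.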

The strongest results of the screen are mostly left out here.
Sequences are the guide (antisense) strand, without overhang.

For UGAAUUUCAACUCUUUGCA against TAX1BP3 the result was seed-corrected z-score 1.078. Result for AUAGGUAGCAUGCCUCAGG against ECE2 was seed-corrected z-score 0.9158. With UAACUGAGAUCAGCGAUGG against MROH8 the assay gave seed-corrected z-score -0.09275. UGAGAUCCCAGAAGCGCAC against NLE1 gave seed-corrected z-score -0.7248. With UGUCUUUCCAGUUGCGAGG against ATP2C1 the assay gave seed-corrected z-score -0.1627. With AAGGGACUGACGACAAACC against ELOVL5 the assay gave seed-corrected z-score -0.1207. UCUAAUUGCAGCGUAGUCC against RALA read seed-corrected z-score 0.1562.

Result for AAUCGUGACACUCAUAGGG against ZNF135 was seed-corrected z-score -0.01025. AACUGGUCCAUAACUGCUG against AMD1 gave seed-corrected z-score 0.7205. UUUGUUCCAAAGAGCAUCC against SLC2A12 read seed-corrected z-score 2.097. ACUCGGUCAGCAUCUUUCG against UQCRHP2 gave seed-corrected z-score 0.522. UUUCUGUCCUCCAAAGUCC against NUDCD2 gave seed-corrected z-score -0.4623. AUAUGGAUCAAAUCUUGCU against CRIPT read seed-corrected z-score 0.3416. With UACACGACUGUUAUAAUGC against OR1Q1 the assay gave seed-corrected z-score -1.054.

UUCUUGACACUAUAAUGUC against SLC24A2 gave seed-corrected z-score -0.4195. UCAUAGAAGCGGACGAUGU against WNK4 gave seed-corrected z-score -0.7007. UUGAGGGCUAGUUUGUUCC against C19orf43 read seed-corrected z-score -0.4164. With UAAAUCCGCAUUGUAGAUG against CSF2RA the assay gave seed-corrected z-score -0.3643. UACCAGAUUAGGAUGCUUG against ABL2 gave seed-corrected z-score 0.08376. For UCAGCGAUAACUAGGGUGC against PALLD the result was seed-corrected z-score -0.1706. Result for UUGACUUCCGGUUAAAGCC against ZNF133 was seed-corrected z-score -0.1747.

With UGAGGAGGUAGUGAAGCAG against OR2S2 the assay gave seed-corrected z-score -0.8044. UGCGUGGUAGCUUUUCUUG against PACSIN3 gave seed-corrected z-score -0.9635. With UUUCCAACCAAGAUGAGAG against RERG the assay gave seed-corrected z-score 0.1634. ACUUGUCCCUCGUAUAACC against PDXK read seed-corrected z-score -0.2074. With UUGUUGAUUGUGAUCGACC against LIFR the assay gave seed-corrected z-score 0.5328. For AAUAUGUUGCCUAAAUUGG against NUP50 the result was seed-corrected z-score -0.2348. Result for UCCCAGAUGACAACGAGGC against LLGL2 was seed-corrected z-score 0.9991.

UUUCGAACUACUUUAUCAC against LMLN read seed-corrected z-score 0.1387. Result for ACACCGGUAUUUUUCAUCC against UGT8 was seed-corrected z-score 0.09288. With UUUGAUCUUGGUGAUCACC against ADCY3 the assay gave seed-corrected z-score 0.5558. With UAUUGUUCUGCAGUCGGUC against PDE6B the assay gave seed-corrected z-score -0.3504. UUCUCGAUUCAUUUUCUUC against HOXA10 read seed-corrected z-score 0.4514. For UCUUUAGACAUAGAUGUGG against OR2W1 the result was seed-corrected z-score -0.06524. Result for UAAGUUGCUCUGGACGUGC against PCSK1N was seed-corrected z-score -1.248.

With UAUGGGUAGUCACAUAUAC against RNF4 the assay gave seed-corrected z-score -0.003835. Result for UGUUAACCAAGUUCCAUCC against SP110 was seed-corrected z-score -0.1836. UCUCGGAUGAAUCAGGGUG against TRPC4 read seed-corrected z-score 0.0486. AGACUGCAAAGACUGAGGC against CDCP2 gave seed-corrected z-score 0.5455. ACACUGUUGAGAAUCGCUG against IGSF9B read seed-corrected z-score 0.1316. UUCAUGUCCAUCAAGCACG against TMEM240 read seed-corrected z-score -1.025. UCAUCUAUACCCAACAGGG against ATF4 read seed-corrected z-score 0.313.

With ACAUUGACUUCUCCGAGGC against GFI1 the assay gave seed-corrected z-score -0.4749. Result for UUUAGAGCUACCAUUUAGG against RANBP9 was seed-corrected z-score 1.153. For UGAUCAAUGACCAGUAGGC against GNMT the result was seed-corrected z-score 0.8078.

The first 5 entries again:

Sequence,gene,seed-corrected z-score
UGAAUUUCAACUCUUUGCA,TAX1BP3,1.078
AUAGGUAGCAUGCCUCAGG,ECE2,0.9158
UAACUGAGAUCAGCGAUGG,MROH8,-0.09275
UGAGAUCCCAGAAGCGCAC,NLE1,-0.7248
UGUCUUUCCAGUUGCGAGG,ATP2C1,-0.1627